The list shows a part of the results. Values are raw readings; no control value is given beside them.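 Primary screen: polymyxin B was added at a level permeabilizing Salmonella outer membranes while sparing inner membranes. DMSO wells, both with and without polymyxin B, established maximum growth. Plate-to-plate variation meant each plate was ranked on its own, and the lowest-OD600 compounds were selected as hits.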

The assay deals with Salmonella enterica serovar Typhimurium SL1344. The assay can be described thus: bacterial growth OD600 after 18 h with compound and polymyxin B; higher = more bacterial growth (less inhibition). Particulars: 50 µM, Mueller-Hinton broth.

On to `Cc1ccc2nccc(C(=O)N3CCCC(CO)(CCOc4ccccc4)C3)c2c1` (stereo not given), for which the “bacterial growth OD600” value (polymyxin B 1 µg/mL) was determined as 1.14.
Regarding `O=C(NC1CCC1)C1CCCN(C2CCN(C3Cc4ccccc4C3)CC2)C1` (stereo not given), the “bacterial growth OD600” value (polymyxin B 0.75 µg/mL) was 0.877.
With `Cc1ccsc1C(=O)NC1CCCc2nc(N3CCC(CO)CC3)ncc21` (stereo not given), the “bacterial growth OD600” value (polymyxin B 0.75 µg/mL) came to 0.816.
For `Cc1ccc(NC2CCCN(C(=O)c3n[nH]c4ccccc34)C2)cc1C` (stereo not given), where the note is “polymyxin B 1 µg/mL”, the “bacterial growth OD600” value was determined as 0.687.
Turning to `CN(C(=O)C1CC1)C(Cc1ccc(F)cc1F)C1CCN(C(=O)/C=C/c2ccccc2)CC1` (stereo not given), for the setting “polymyxin B 0.75 µg/mL”, the “bacterial growth OD600” value worked out at 0.006.
As for `COCCn1c(-c2ccccn2)nc2cc(NC(C)=O)cc(C(=O)N(Cc3ccccc3)CC3CC3)c21`, the “bacterial growth OD600” value (polymyxin B 0.75 µg/mL) came to 0.742.
In the case of `O=C(c1cccs1)C1CCCN(C(=O)COc2ccc(N3CCN(c4ccccn4)CC3)nn2)C1` (stereo not given), the “bacterial growth OD600” value (polymyxin B 0.75 µg/mL) stood at 0.768.
For `CC(=O)c1cccc(CN2CCC(CCC(=O)N3CCN(c4ccccc4)CC3)CC2)c1`, the “bacterial growth OD600” value (polymyxin B 1 µg/mL) is 0.889.
Still for that read-out and setting: as for `CCCCn1c(CN(C)CCc2ccc(OC)c(OC)c2)cnc1S(=O)(=O)CC`, the figure is 1.08; as for `Cc1cccc(C(=O)N2CCCC(C(=O)c3ccc(-c4ccccc4)cc3)C2)n1` (stereo not given), 0.006.
With `COc1cccc(CC2(CCC(=O)NC(c3ccccc3)c3ccc(Cl)cc3)CCC(=O)N2)c1` (stereo not given), the “bacterial growth OD600” value (polymyxin B 0.75 µg/mL) amounted to 0.002.
With `CN(Cc1cccnc1)CC1(O)CCCN(Cc2ccc(F)cc2)C1=O` (stereo not given), the “bacterial growth OD600” value (polymyxin B 1 µg/mL) came out at 1.03.
Consider `O=C(CC1=CCCCC1)N1CCc2[nH]nc(-c3ccccc3F)c2C1`, for which the “bacterial growth OD600” value (polymyxin B 0.75 µg/mL) worked out at 0.645.
As to `COc1ccc(CC2(CCC(=O)NCCc3ccccc3Cl)CCC(=O)N2)c(F)c1` (stereo not given), the “bacterial growth OD600” value (polymyxin B 0.75 µg/mL) turned out to be 0.825.
Regarding `O=C(NCc1ccccc1)C1CC12CCN(C(=O)/C=C/c1ccccc1)CC2` (stereo not given), the “bacterial growth OD600” value (polymyxin B 0.75 µg/mL) is 0.845.
As to `O=C(CC1=CCCCC1)N1CCCC(CNC(=O)C2(c3ccc(Cl)cc3)CC2)C1` (stereo not given), for the setting “polymyxin B 0.75 µg/mL”, the “bacterial growth OD600” value worked out at 0.601.
On the same count and under the same terms, as for `CC#CCN1C(=O)NC(CCc2ccccc2)(C2CCN(Cc3ccco3)CC2)C1=O` (stereo not given), the figure is 0.768; as for `COc1ccc(OC)c(-c2cc(Cl)c3c(c2)CC(CNC(=O)CSc2ccccn2)O3)c1` (stereo not given), 0.006.
As to `Cc1cc2nc(N3CCCN(Cc4ccc5ncccc5c4)CC3)nc(C)c2cc1C`, the “bacterial growth OD600” value (polymyxin B 0.75 µg/mL) came to 0.587.
`COc1ccc(CCN2CC(C(=O)N(C)Cc3c(C)n[nH]c3C)CCC2=O)cc1` (stereo not given): the “bacterial growth OD600” value (polymyxin B 1 µg/mL) turned out to be 0.875.
Take `O=C(c1ccco1)N1CCCN(Cc2nc(Cc3cccc(C(F)(F)F)c3)no2)CC1`: the “bacterial growth OD600” value (polymyxin B 1 µg/mL) is 0.887.
Same read-out and setting: then `CCCCNc1ccc(C(=O)N2CCCN(c3ncccn3)CC2)cn1`, with 0.969; and `CCOC(=O)C1(CCCc2ccccc2)CCN(Cc2ccccn2)CC1`, with 0.765.
On to `Cc1cc(C)n(-c2ccc(NC(=O)C3CCCCN3C(=O)c3cc(C)on3)cc2)n1` (stereo not given), for which the “bacterial growth OD600” value (polymyxin B 1 µg/mL) is 0.896.
As for `CCCNC(=O)[C@H]1C[C@@](CC(C)C)(C(=O)OC)N(C)[C@H]1c1cccnc1`, for the setting “polymyxin B 0.75 µg/mL”, the “bacterial growth OD600” value was determined as 0.821.
On the same count and under the same terms, as for `CCc1csc(CNC(=O)c2ccc(N(C)Cc3cccs3)nc2)n1`, the figure is 0.913.
In the case of `CC(=O)c1cccc(OCc2cc(C(=O)N(C)C(C)c3cccs3)n[nH]2)c1` (stereo not given), the “bacterial growth OD600” value (polymyxin B 1 µg/mL) was found to be 0.672.
On to `Cc1ccccc1N1C(=O)CN(C(=O)CCCc2cccs2)CC1C` (stereo not given), for which, for the setting “polymyxin B 0.75 µg/mL”, the “bacterial growth OD600” value worked out at 0.919.
For the compound `COc1cc(C(=O)N(Cc2cccc(OCCc3cccs3)c2)C2CCCC2)cc(OC)c1OC`, where the note is “polymyxin B 0.75 µg/mL”, the “bacterial growth OD600” value is 0.002.
Regarding `O=C(c1cn(CCC2CCCCC2)nn1)N1CCN(C(=O)c2ccco2)CC1`, the “bacterial growth OD600” value (polymyxin B 1 µg/mL) is 0.808.

The record behind these values is the supplement of paper PMC12889115.
